The list shows a part of the results. Further columns of the screen follow, without active or inactive calls. Most of these compounds were active or inconclusive in the main read-out, so they are no random draw. Potencies come from curve fits of mixed quality, noted in brackets.
Assay: qHTS Assay for Lipid Storage Modulators in Drosophila S3 Cells;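 as to cell number change: cells counted by Cell Tracker Red CMTPX staining in the red channel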
Details: BODIPY lipid droplet fluorescence, 18-24 h; for cell number change: measured here: cell count max response, cells fed with added oleic acid
Method in brief: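 Laser-scanning cytometry quantifies lipid droplet accumulation (500–530 nm total intensity; droplet/cell object ratio) in oleic acid-fed (400 uM added) Drosophila S3 cells treated with a concentration series. 20 uM Triacsin C defined 100% inhibition.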

[1] = measured here: lipid fluorescence (Fed channel) AC50, cells fed with added oleic acid
[2] = measured here: cell number channel AC50, cells fed with added oleic acid

| Compound | cell number change | AC50 [1] | AC50 [2] |
| --- | --- | --- | --- |
| CC(C)CCOP(=O)(c1ccc(N(C)C)cc1)C(O)c1ccccn1 (stereo unspecified) | -53.1% | – | – |
| Fc1cccc2sc(Nc3nc4c(F)cccc4s3)nc12 | -7.27% | – | – |
| COc1c(Cl)cc(Cl)cc1C(=O)Nc1ccc(C(=O)O)cc1 | 7.97% | 2.91 µM [rising, partial curve] | – |
| Clc1ccc(-c2nc(Cc3ccccc3Cl)no2)cc1 | 0.418% | 0.13 µM [falling, full curve, poor fit] | – |
| O=C(NN1CCCCC1)c1cccc(COc2ccc(Cl)cc2)c1 | -36.6% | 29.1 µM [falling, single point] | 3.26 µM [falling, full curve] |
| O=C(CSc1nc2cc(C(F)(F)F)ccc2n1Cc1ccccc1)NC1CCS(=O)(=O)C1 (stereo unspecified) | -43.8% | – | 32.6 µM [falling, partial curve] |
| O=C(Nc1nc2ccccc2c2nc3ccccc3n12)c1ccc(F)cc1 | 7.28% | – | – |
| CCN(/C=N/c1sc2c(c1C#N)CC(C)(C)NC2(C)C)CC | -42.9% | 29.1 µM [falling, single point] | 3.66 µM [falling, full curve] |
| O=C(CCN(NC(=O)c1ccccc1)C1=NS(=O)(=O)c2ccccc21)NC1CCCCC1 | 2.72% | 0.82 µM [falling, full curve, poor fit] | – |
| O=C(NC1CCN(Cc2ccccc2)CC1)c1cc(-c2ccccn2)nc2ccccc12 | 50.8% | 1.46 µM [rising, partial curve] | 20.6 µM [rising, single point] |
| COc1ccc(C(=O)N/N=C2\CCc3ccccc32)cc1OC | 37.8% | – | 0.461 µM [rising, full curve, poor fit] |
| CCOC(=O)C1CCN(c2c(NCc3ccc(C(=O)NC4CCCC4)cc3)c(=O)c2=O)CC1 | 7.61% | – | – |
| COc1ccccc1NC(=O)Oc1cccc(OC(=O)c2ccccc2)c1 | 2.24% | 0.92 µM [rising, single point] | – |
| O=C(NCC(=O)N1CCCCCCC1)c1ccccc1Cl | 8.88% | – | – |
| N#CCC(=O)Nc1ccc(C(=O)OCC(=O)Nc2sc3c(c2C#N)CCCC3)cc1 | -56.1% | – | 29.1 µM [falling, single point] |
| N#Cc1c(N)nc2c(c1N)CC(CO)O2 (stereo unspecified) | 136% | 0.731 µM [rising, partial curve, poor fit] | 18.4 µM [rising, partial curve, poor fit] |
| COc1ccc(C(=O)N(C)Cc2ccccc2F)cc1S(=O)(=O)N1CCCC1 | 34.6% | 0.0058 µM [falling, full curve, poor fit] | 29.1 µM [rising, single point] |
| O=C(CCc1nc(-c2cccs2)no1)Nc1cnc2ccccc2c1 | 11.4% | 10.3 µM [rising, partial curve, poor fit] | – |
| COc1ccccc1NC(=O)CN1C(=O)NC(CC(C)C)C1=O (stereo unspecified) | 9.09% | 25.9 µM [rising, single point] | – |
| CC(C)c1ccc(NC2CCCN(C(=O)CCN3Cc4ccccc4C3=O)C2)cc1 (stereo unspecified) | – | 29.1 µM [rising, single point] | – |
| CN(c1ccc(-c2csc(NC(=O)C3CC(=O)N(Cc4ccco4)C3)n2)cc1)S(C)(=O)=O (stereo unspecified) | -13.3% | 8.2 µM [falling, partial curve, poor fit] | – |
| CS(=O)(=O)N(CC(=O)NCc1ccco1)c1ccc(OCc2ccccc2)cc1 | 19.7% | 29.1 µM [falling, partial curve] | – |
| COc1ccc(C(=O)NC(C(=O)NCc2ccccn2)C(C)C)cc1 (stereo unspecified) | – | 1.84 µM [falling, partial curve, poor fit] | – |
| CCOC(=O)c1cnc(-n2cc(C)cn2)nc1Nc1ccccc1OC | -1.89% | 2.06 µM [falling, single point] | – |
| Cn1c(NN)nc2sc3c(c2c1=O)CC(C)(C)OC3 | -20.3% | 1.46 µM [falling, full curve, poor fit] | – |
| CCC(C)(C)NC(=O)CN(CCc1cccc(C)c1)C(=O)c1csnn1 | -35.4% | 10.3 µM [falling, partial curve, poor fit] | 16.4 µM [falling, partial curve, poor fit] |
| CS(=O)(=O)c1ccc2nc(N)sc2c1 | 6.25% | 0.00411 µM [rising, full curve, poor fit] | – |
| C#CCOCCOCCOCCNc1nc(N2CCN(C(=O)CCCCCCCCCCNC(=O)[C@H](CCCCN)n3cc(C)nn3)CC2)nc(N2CCN(C(=O)CCCCCCCCCCNC(=O)[C@@H]([C@H](C)CC)n3cc(CCCCCN)nn3)CC2)n1 | -52.2% | 0.146 µM [falling, full curve, poor fit] | 18.4 µM [falling, partial curve] |

Taken from above:
AC50 [1] with COc1ccc(C(=O)N(C)Cc2ccccc2F)cc1S(=O)(=O)N1CCCC1 reads 0.0058 µM [falling, full curve, poor fit]
AC50 [1] with O=C(CCc1nc(-c2cccs2)no1)Nc1cnc2ccccc2c1 reads 10.3 µM [rising, partial curve, poor fit]
